Some of the results follow.

Amino acid sequences for entries named in this document (tags omitted). A change or cut given only in a name is not applied to a line headed by its entry.
UniProt P50148, whole entry, looked up: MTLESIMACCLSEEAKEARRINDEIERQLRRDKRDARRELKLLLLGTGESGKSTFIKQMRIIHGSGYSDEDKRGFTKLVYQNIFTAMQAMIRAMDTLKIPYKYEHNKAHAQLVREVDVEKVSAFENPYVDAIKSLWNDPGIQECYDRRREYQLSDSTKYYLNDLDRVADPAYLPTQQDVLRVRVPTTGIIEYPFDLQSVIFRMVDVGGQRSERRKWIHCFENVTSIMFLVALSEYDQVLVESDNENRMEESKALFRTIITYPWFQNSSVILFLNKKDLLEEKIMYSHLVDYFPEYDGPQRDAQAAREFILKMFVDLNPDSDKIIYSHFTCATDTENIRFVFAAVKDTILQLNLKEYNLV
UniProt Q9UJ14: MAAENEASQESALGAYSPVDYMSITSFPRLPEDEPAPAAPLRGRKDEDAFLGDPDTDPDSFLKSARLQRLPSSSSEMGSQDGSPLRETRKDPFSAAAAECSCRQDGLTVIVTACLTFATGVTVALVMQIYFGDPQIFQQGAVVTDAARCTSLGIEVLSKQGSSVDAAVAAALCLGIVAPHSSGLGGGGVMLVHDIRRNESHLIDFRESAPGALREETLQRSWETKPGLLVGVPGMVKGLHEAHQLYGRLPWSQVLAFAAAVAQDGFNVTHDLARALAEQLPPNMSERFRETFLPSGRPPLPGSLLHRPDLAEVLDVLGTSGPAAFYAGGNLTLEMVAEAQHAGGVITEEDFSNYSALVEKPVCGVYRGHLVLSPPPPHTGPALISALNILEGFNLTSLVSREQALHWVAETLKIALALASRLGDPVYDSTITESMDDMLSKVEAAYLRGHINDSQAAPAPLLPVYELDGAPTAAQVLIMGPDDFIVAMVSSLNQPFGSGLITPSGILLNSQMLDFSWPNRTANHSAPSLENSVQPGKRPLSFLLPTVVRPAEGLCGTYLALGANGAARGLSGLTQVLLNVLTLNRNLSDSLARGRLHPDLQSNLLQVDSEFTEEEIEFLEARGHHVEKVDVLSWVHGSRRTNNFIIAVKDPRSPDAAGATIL
UniProt Q8IW92: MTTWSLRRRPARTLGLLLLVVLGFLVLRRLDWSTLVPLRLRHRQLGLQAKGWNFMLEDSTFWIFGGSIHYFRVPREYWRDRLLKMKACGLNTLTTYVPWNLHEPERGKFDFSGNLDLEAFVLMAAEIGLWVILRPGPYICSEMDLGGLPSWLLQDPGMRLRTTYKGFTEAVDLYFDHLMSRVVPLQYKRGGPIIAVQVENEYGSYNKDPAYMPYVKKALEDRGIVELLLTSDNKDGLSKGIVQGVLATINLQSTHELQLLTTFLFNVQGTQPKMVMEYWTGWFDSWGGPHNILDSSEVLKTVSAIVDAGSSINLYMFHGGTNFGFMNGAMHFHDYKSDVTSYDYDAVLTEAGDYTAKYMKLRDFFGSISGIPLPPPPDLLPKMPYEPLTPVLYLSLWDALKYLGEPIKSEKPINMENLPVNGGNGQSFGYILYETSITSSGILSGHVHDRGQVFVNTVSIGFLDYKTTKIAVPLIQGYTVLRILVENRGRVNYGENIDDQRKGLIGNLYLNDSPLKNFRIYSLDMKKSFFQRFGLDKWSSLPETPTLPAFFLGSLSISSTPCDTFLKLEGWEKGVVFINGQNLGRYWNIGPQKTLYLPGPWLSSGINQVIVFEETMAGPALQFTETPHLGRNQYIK
UniProt Q9Y692: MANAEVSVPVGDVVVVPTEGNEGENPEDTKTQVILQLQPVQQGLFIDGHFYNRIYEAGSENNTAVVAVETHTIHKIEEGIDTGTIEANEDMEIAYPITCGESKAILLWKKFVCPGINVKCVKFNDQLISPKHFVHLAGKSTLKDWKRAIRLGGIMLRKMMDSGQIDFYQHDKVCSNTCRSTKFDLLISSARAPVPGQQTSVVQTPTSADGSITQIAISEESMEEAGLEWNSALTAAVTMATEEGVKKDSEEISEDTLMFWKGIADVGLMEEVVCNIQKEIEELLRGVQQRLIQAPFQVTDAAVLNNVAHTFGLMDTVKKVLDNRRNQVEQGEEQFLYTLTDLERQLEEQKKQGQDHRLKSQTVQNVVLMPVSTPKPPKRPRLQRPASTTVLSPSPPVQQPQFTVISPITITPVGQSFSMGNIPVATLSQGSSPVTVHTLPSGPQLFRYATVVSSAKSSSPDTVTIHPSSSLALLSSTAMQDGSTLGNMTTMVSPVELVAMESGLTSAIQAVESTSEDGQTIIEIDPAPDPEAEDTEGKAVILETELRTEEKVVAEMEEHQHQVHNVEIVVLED
UniProt Q13439: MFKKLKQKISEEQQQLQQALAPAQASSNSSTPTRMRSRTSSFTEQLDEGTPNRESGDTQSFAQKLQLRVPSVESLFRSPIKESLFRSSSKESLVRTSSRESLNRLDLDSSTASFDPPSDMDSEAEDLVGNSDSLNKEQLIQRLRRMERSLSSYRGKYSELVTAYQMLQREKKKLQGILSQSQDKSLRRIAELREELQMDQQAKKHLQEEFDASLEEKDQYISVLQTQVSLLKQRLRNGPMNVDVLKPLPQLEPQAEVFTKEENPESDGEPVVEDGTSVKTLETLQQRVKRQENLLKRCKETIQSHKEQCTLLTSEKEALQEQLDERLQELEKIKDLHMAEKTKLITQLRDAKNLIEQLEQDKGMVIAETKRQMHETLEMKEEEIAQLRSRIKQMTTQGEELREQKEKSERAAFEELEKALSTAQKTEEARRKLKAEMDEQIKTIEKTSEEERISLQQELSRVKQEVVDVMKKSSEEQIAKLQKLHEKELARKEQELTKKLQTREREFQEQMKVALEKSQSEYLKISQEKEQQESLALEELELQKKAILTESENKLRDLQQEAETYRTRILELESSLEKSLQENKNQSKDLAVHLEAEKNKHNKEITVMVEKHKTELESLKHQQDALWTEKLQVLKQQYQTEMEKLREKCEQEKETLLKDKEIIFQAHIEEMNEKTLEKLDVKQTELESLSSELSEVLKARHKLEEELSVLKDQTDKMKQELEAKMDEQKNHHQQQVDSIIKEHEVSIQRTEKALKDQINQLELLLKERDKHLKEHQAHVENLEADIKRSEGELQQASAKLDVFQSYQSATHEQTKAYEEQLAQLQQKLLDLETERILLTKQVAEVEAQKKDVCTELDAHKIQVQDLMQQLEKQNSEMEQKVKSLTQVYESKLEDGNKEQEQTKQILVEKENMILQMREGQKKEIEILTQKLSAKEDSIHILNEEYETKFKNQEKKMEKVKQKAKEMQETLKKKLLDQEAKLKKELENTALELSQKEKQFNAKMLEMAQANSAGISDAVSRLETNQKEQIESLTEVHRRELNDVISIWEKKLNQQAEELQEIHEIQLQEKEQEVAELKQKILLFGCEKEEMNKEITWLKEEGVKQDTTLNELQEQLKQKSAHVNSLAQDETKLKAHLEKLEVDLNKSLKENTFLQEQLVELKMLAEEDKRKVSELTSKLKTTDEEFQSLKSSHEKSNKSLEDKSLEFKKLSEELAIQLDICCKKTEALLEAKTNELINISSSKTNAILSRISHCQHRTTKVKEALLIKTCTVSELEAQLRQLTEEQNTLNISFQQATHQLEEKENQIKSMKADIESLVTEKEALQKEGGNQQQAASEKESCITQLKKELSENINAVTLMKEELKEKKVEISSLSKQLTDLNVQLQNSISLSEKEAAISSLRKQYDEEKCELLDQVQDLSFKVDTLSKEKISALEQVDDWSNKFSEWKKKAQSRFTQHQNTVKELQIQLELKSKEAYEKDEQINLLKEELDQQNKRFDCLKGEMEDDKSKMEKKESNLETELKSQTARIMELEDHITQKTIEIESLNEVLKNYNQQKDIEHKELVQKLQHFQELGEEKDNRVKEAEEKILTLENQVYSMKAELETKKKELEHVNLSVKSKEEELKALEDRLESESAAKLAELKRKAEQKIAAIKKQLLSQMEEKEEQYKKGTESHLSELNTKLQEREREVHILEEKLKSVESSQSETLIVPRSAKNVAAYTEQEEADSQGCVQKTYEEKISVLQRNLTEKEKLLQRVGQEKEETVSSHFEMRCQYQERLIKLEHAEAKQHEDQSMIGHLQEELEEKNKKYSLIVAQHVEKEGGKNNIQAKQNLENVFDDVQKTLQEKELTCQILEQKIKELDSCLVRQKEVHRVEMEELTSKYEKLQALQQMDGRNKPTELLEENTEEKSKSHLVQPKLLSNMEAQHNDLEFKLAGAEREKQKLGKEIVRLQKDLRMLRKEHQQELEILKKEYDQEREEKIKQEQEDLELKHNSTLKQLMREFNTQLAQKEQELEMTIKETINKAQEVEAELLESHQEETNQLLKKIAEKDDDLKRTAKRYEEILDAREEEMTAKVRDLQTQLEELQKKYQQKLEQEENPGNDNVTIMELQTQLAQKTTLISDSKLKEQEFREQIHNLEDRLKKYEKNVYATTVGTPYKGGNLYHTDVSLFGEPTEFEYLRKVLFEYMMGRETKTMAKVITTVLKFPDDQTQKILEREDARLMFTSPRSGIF
UniProt Q9BXV9: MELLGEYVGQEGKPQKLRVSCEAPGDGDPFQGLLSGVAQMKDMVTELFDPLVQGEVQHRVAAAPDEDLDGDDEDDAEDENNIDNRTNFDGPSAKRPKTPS
UniProt O15228: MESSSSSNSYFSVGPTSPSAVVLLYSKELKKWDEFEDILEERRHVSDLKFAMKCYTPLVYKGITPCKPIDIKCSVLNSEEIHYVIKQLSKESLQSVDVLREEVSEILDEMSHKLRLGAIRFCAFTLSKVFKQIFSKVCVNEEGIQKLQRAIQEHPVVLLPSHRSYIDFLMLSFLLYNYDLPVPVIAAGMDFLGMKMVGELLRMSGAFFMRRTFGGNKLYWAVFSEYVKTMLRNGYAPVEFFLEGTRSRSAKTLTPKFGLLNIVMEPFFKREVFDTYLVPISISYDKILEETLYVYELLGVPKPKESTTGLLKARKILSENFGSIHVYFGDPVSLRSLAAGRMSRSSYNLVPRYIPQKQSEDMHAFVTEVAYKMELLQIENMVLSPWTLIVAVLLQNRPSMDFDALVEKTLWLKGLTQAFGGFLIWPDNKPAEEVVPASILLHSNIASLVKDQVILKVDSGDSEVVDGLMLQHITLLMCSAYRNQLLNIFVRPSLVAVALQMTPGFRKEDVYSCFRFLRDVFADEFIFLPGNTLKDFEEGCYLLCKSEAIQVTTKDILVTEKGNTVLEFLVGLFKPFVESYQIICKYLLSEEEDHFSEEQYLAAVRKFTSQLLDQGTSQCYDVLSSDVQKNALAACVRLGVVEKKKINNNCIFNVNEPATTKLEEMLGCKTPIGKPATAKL
UniProt Q03113, whole entry, looked up: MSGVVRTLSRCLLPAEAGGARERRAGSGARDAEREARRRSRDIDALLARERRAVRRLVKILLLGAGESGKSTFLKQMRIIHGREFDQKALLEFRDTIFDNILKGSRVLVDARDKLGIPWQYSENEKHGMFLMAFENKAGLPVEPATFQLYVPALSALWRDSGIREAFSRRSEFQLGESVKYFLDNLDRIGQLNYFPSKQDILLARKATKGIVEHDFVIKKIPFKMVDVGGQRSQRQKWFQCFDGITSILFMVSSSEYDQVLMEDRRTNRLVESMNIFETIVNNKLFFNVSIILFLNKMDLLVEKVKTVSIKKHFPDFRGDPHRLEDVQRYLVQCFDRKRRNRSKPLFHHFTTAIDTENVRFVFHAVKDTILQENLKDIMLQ
UniProt Q9UHW5, whole entry, looked up: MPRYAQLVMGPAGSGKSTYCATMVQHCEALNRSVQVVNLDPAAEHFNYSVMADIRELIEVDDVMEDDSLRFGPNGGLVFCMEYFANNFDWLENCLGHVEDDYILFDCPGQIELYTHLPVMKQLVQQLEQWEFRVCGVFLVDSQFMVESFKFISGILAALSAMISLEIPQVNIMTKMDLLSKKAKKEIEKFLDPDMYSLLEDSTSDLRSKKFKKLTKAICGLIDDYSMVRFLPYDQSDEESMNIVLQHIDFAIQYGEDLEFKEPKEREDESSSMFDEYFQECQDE
UniProt Q9H4A6: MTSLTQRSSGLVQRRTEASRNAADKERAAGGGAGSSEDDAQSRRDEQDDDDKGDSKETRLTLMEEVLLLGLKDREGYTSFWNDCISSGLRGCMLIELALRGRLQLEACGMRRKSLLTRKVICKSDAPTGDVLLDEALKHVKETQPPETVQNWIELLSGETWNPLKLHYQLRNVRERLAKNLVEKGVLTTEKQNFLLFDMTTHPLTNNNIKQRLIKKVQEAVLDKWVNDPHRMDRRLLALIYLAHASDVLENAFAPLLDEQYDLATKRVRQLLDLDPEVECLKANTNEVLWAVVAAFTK
UniProt P16520, whole entry, looked up: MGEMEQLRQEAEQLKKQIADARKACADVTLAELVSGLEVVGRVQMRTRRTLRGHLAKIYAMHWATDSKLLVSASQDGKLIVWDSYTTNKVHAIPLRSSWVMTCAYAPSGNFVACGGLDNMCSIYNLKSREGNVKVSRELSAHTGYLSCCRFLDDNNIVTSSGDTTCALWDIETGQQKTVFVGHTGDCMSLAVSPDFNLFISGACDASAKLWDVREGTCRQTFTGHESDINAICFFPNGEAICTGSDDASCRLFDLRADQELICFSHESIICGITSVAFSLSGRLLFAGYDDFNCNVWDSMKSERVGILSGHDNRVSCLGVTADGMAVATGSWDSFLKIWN

Compound in the first assay: C1=CC=C(C=C1)[C@H](COC2=CC3=C(C=C2)NC(=O)N3)NC(=O)C4=CC=CN(C4=O)CC5=CC(=C(C=C5)F)F
Description: log2 fold change, soluble protein after heating vs DMSO (PISA); higher = thermal stabilisation; K562 lysate, 10 uM; active = over 0.2 and 3.5 SD of the protein, either way, in both replicates (recomputed). In a few lines:
(§1)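 A 30 min treatment with 10 μM compound was applied to crude K562 extract at 1 mg/mL protein in PBS pH 7.4 with 1 mM MgCl2. Heating for 3 min spanned 48°C-58°C, after which aliquots were pooled, adjusted to 0.5% NP-40 at 4°C and spun at 21,000xg for 90 min. TMTpro 16plex LC-MS/MS of the supernatant, with channel sums equalised, gave values recorded as log-two fold change in thermal stability against solvent controls, from duplicates.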
Turning to GNAQ (UniProt P50148), the log2 fold change was inactive: -0.033.
The same measure, in the same setting: with GOSR1 (UniProt O95249) the figure was inactive: -0.045; with GGCT (UniProt O75223), inactive: 0.022; with GLTP (UniProt Q9NZD2), inactive: -0.142.
Still for that read-out and setting: with GIPC1 (UniProt O14908) the figure was inactive: 0.025; with GHITM (UniProt Q9H3K2), inactive: 0.024; with GPATCH11 (UniProt Q8N954), inactive: 0.061.
Take GGT7 (UniProt Q9UJ14): the log2 fold change is inactive: -0.138.
In the case of GLB1L2 (UniProt Q8IW92), the log2 fold change is inactive: 0.005.
Regarding GIT2 (UniProt Q14161), the log2 fold change is inactive: -0.016.
Still for that read-out and setting: with GPI (UniProt P06744) the figure was inactive: 0.012; with GNAS isoform 2 (UniProt Q5JWF2), inactive: -0.037.
For GNA11 (UniProt P29992), the log2 fold change is inactive: 0.02.
Same read-out and setting: the value for GNPDA1 (UniProt P46926) was inactive: 0.029.
On to GMEB1 (UniProt Q9Y692), for which the log2 fold change is inactive: -0.016.
GPALPP1 (UniProt Q8IXQ4): the log2 fold change was inactive: -0.018.
The same measure, in the same setting: with GLRX3 (UniProt O76003) the figure was inactive: 0.007; with GOLGA4 isoform 5 (UniProt Q13439), inactive: 0.01; with GPRASP2 (UniProt Q96D09), inactive: -0.086.
The same measure, in the same setting: the value for GON7 (UniProt Q9BXV9) was inactive: -0.003.
Regarding GP1BB isoform 2 (UniProt P13224), the log2 fold change was inactive: -0.032.
In the case of GNPAT (UniProt O15228), the log2 fold change is inactive: -0.044.
Consider GNPNAT1 (UniProt Q96EK6), for which the log2 fold change was inactive: 0.022.
Same read-out and setting: with GNA12 (UniProt Q03113) the figure was inactive: -0.205; with GNAI3 (UniProt P08754), inactive: -0.014; with GON4L (UniProt Q3T8J9), inactive: 0.027.
Still for that read-out and setting: the value for GOLGA4 (UniProt Q13439) was inactive: -0.24; that for GINS4 (UniProt Q9BRT9) was inactive: 0.002.
The same measure, in the same setting: with GPR108 (UniProt Q9NPR9) the figure was inactive: 0.059; with GPN3 isoform 2 (UniProt Q9UHW5), inactive: 0.002; with GNS (UniProt P15586), inactive: -0.01.
Regarding GOLPH3 (UniProt Q9H4A6), the log2 fold change is inactive: -0.067.
The same measure, in the same setting: with GLG1 isoform 2 (UniProt Q92896) the figure was inactive: 0.004.
As to GOLPH3L (UniProt Q9H4A5), the log2 fold change is inactive: -0.046.
Still for that read-out and setting: with GNL3L (UniProt Q9NVN8) the figure was inactive: 0; with GGT1 (UniProt P19440), inactive: -0.034.
For GLDC (UniProt P23378), the log2 fold change is inactive: -0.037.
Take GNB3 (UniProt P16520): the log2 fold change is inactive: 0.033.

Compound in the next assay: CC1=C(SC2=C1C(=N[C@H](C3=NN=C(N32)C)CC(=O)N)C4=CC=C(C=C4)Cl)C
The assay is described as above. In a few lines:
as §1
GNAQ (UniProt P50148): the log2 fold change was inactive: 0.042.
Still for that read-out and setting: the value for GOSR1 (UniProt O95249) was inactive: 0.022.
Same read-out and setting: with GGCT (UniProt O75223) the figure was inactive: -0.019; with GLTP (UniProt Q9NZD2), inactive: 0.005.
On the same count and under the same terms, with GIPC1 (UniProt O14908) the figure was inactive: 0.02; with GHITM (UniProt Q9H3K2), inactive: -0.014; with GPATCH11 (UniProt Q8N954), inactive: 0.008.
GGT7 (UniProt Q9UJ14): the log2 fold change is inactive: 0.017.
Same read-out and setting: the value for GLB1L2 (UniProt Q8IW92) was inactive: -0.011.
Same read-out and setting: the value for GIT2 (UniProt Q14161) was inactive: 0.021; that for GPI (UniProt P06744) was inactive: 0.006; that for GNAS isoform 2 (UniProt Q5JWF2) was inactive: 0.
On the same count and under the same terms, with GNA11 (UniProt P29992) the figure was inactive: -0.011.
Take GNPDA1 (UniProt P46926): the log2 fold change was inactive: -0.006.
Still for that read-out and setting: with GMEB1 (UniProt Q9Y692) the figure was inactive: -0.007; with GPALPP1 (UniProt Q8IXQ4), inactive: 0.021.
Turning to GLRX3 (UniProt O76003), the log2 fold change is inactive: 0.022.
In the case of GOLGA4 isoform 5 (UniProt Q13439), the log2 fold change was inactive: 0.015.
On the same count and under the same terms, the value for GPRASP2 (UniProt Q96D09) was inactive: -0.101; that for GON7 (UniProt Q9BXV9) was inactive: -0.065.
On the same count and under the same terms, with GP1BB isoform 2 (UniProt P13224) the figure was inactive: 0.007.
Consider GNPAT (UniProt O15228), for which the log2 fold change was inactive: 0.009.
Regarding GNPNAT1 (UniProt Q96EK6), the log2 fold change is inactive: -0.039.
Regarding GNA12 (UniProt Q03113), the log2 fold change was inactive: 0.209.
Same read-out and setting: the value for GNAI3 (UniProt P08754) was inactive: -0.005; that for GON4L (UniProt Q3T8J9) was inactive: 0; that for GOLGA4 (UniProt Q13439) was inactive: 0.223.
On the same count and under the same terms, the value for GINS4 (UniProt Q9BRT9) was inactive: 0; that for GPR108 (UniProt Q9NPR9) was inactive: -0.053.
As to GPN3 isoform 2 (UniProt Q9UHW5), the log2 fold change is inactive: -0.01.
For GNS (UniProt P15586), the log2 fold change is inactive: 0.023.
On the same count and under the same terms, with GOLPH3 (UniProt Q9H4A6) the figure was inactive: 0.018; with GLG1 isoform 2 (UniProt Q92896), inactive: -0.004; with GOLPH3L (UniProt Q9H4A5), inactive: 0.005.
The same measure, in the same setting: with GNL3L (UniProt Q9NVN8) the figure was inactive: 0.009; with GGT1 (UniProt P19440), inactive: -0.05; with GLDC (UniProt P23378), inactive: -0.075.
In the case of GNB3 (UniProt P16520), the log2 fold change was inactive: 0.041.

Values taken from the supplement of paper PMC10849652.
